# Test results published in publication PMC10688980.
# Sequences of proteins named here, by UniProt entry; tags and fusion partners are left off.
# UniProt Q16186: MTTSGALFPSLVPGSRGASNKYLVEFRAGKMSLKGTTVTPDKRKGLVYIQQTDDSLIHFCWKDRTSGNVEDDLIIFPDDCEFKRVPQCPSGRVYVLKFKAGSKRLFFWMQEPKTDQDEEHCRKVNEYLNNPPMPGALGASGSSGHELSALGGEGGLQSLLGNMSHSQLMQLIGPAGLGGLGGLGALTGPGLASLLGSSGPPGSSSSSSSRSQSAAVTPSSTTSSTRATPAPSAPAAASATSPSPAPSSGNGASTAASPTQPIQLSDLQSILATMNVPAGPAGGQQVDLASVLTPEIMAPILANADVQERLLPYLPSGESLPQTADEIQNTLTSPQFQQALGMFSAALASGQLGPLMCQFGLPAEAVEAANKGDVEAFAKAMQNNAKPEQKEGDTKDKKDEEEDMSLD
# UniProt O00487: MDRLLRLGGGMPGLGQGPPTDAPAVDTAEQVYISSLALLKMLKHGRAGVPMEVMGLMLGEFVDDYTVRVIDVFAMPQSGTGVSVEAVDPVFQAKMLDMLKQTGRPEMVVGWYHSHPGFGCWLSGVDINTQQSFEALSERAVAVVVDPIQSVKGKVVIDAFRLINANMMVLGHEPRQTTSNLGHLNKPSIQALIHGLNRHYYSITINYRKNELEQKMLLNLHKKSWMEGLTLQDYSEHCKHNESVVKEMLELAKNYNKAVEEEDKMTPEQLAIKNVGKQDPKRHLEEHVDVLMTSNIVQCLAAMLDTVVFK
# UniProt P62333: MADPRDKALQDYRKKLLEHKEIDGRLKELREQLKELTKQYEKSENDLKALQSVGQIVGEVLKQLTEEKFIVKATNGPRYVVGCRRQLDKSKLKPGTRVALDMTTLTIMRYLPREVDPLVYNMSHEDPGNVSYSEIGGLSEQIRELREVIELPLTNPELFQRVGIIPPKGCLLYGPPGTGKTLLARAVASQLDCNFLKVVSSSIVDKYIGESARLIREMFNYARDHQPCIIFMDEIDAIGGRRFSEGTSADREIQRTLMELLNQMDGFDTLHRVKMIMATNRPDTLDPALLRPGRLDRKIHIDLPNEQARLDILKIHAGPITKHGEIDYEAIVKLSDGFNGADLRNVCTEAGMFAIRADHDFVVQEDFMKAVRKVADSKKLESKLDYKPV
# UniProt O00232: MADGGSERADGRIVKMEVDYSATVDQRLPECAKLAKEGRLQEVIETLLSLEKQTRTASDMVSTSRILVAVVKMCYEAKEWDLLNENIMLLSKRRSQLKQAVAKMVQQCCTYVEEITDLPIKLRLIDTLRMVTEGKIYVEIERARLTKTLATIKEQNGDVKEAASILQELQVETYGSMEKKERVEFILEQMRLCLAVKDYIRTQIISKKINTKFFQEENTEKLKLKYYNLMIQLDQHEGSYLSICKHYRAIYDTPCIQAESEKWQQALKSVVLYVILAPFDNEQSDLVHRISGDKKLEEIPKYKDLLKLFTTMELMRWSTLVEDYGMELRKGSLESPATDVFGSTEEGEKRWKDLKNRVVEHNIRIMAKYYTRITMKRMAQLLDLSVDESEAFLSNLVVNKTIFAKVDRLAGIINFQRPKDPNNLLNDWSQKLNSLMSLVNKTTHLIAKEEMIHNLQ
# UniProt Q16401: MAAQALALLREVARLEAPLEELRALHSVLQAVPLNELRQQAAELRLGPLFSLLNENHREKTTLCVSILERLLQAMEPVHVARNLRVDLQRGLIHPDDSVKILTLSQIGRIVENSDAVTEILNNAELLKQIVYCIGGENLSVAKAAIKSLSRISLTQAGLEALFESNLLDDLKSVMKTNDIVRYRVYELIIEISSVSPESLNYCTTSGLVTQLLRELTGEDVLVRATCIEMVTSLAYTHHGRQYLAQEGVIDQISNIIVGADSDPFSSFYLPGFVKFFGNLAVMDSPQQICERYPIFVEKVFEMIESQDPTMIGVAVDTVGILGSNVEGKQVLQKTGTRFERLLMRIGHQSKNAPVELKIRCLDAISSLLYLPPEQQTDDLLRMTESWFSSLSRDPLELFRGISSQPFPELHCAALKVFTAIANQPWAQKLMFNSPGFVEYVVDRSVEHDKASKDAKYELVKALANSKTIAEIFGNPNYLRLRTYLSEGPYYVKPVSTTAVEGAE
# These are yes or no findings as the source states them, for the method shown. Binding seen in cells or lysates may run through a third protein. Some binding calls cover weakened binding; strength is not graded here. For some assays here: Tags and fused reporters may be left off the sequences shown.
# T1: 6xHis-WDR70 (112–654 aa) (UniProt Q9NW82)
# T1 sequence: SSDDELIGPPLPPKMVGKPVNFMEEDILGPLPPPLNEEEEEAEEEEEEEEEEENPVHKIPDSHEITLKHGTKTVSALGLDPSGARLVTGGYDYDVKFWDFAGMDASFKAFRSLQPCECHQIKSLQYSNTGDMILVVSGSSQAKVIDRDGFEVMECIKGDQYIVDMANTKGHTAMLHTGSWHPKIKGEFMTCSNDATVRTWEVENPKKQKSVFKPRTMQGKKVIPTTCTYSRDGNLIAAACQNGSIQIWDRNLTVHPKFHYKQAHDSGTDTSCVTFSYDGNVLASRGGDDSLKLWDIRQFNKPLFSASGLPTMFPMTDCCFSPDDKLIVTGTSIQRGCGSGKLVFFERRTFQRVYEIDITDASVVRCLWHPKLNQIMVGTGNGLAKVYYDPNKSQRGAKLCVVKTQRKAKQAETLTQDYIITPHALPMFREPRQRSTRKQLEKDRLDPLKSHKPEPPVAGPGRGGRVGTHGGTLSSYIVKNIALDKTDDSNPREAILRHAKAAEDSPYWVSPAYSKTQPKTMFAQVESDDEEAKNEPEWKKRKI
# B1: WDR70 (endogenous, human cells) (protein, UniProt Q9NW82 1-654)
# chain: MERSGPSEVTGSDASGPDPQLAVTMGFTGFGKKARTFDLEAMFEQTRRTAVERSRKTLEAREKEEEMNREKELRRQNEDIEPTSSRSNVVRDCSKSSSRDTSSSESEQSSDSSDDELIGPPLPPKMVGKPVNFMEEDILGPLPPPLNEEEEEAEEEEEEEEEEENPVHKIPDSHEITLKHGTKTVSALGLDPSGARLVTGGYDYDVKFWDFAGMDASFKAFRSLQPCECHQIKSLQYSNTGDMILVVSGSSQAKVIDRDGFEVMECIKGDQYIVDMANTKGHTAMLHTGSWHPKIKGEFMTCSNDATVRTWEVENPKKQKSVFKPRTMQGKKVIPTTCTYSRDGNLIAAACQNGSIQIWDRNLTVHPKFHYKQAHDSGTDTSCVTFSYDGNVLASRGGDDSLKLWDIRQFNKPLFSASGLPTMFPMTDCCFSPDDKLIVTGTSIQRGCGSGKLVFFERRTFQRVYEIDITDASVVRCLWHPKLNQIMVGTGNGLAKVYYDPNKSQRGAKLCVVKTQRKAKQAETLTQDYIITPHALPMFREPRQRSTRKQLEKDRLDPLKSHKPEPPVAGPGRGGRVGTHGGTLSSYIVKNIALDKTDDSNPREAILRHAKAAEDSPYWVSPAYSKTQPKTMFAQVESDDEEAKNEPEWKKRKI
# Experiments:
# 6xHis-WDR70 (112–654 aa) = biological target: T1, 6xHis-WDR70 (112–654 aa); test: pull-down; 19S particles dissociated in nuclear HEK293T extracts with high-salt buffer (600 mM NaCl) and incubated with His-WDR70 (112–654 aa) purified from Sf9 cells; only the target purified
# FLAG-ADRM1^Rpn13 (human) = FLAG-ADRM1^Rpn13 (human) (UniProt Q16186); test: co-IP; endogenous WDR70 and FLAG-tagged 19S subunits, with or without PSMD5 silencing
# FLAG-POH1^Rpn11 = FLAG-POH1^Rpn11 (UniProt O00487); test: as above
# FLAG-PSMC6^Rpt4 = FLAG-PSMC6^Rpt4 (UniProt P62333); test: as above
# FLAG-PSMD12^Rpn5 = FLAG-PSMD12^Rpn5 (UniProt O00232); test: as above
Molecule,binding (6xHis-WDR70 (112–654 aa)),binding (FLAG-ADRM1^Rpn13 (human)),binding (FLAG-POH1^Rpn11),binding (FLAG-PSMC6^Rpt4),binding (FLAG-PSMD12^Rpn5)
"PSMD5^Hsm3 (endogenous, HEK293T nuclear extract) (from UniProt Q16401 1-504)",binds,–,–,–,–
B1,–,binds,binds,binds,binds
